Measurements reported in PubChem BioAssay AID504764 (Drosophila RNAi Screening Center, 2011)
In all, the deposit lists about 22,000 reagents; shown is an unselected part of those with a known target gene and a result. In the full data, 403 (1.9%) got an active call. 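Unnormalised raw counts per well; ratio z-scores behind the hit calls and whether each hit raises or lowers signal are not deposited.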 The record does not give: the amount of reagent.

Test: 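Knock-downs that raise or lower a Notch target reporter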 (primary screen)
System: Drosophila Kc167 cells
Knock-down reagent: long dsRNA against Drosophila genes
Duration: about 5 days (4 days dsRNA, then 24 h after transfection)
Challenge: transfection of constitutively active membrane-tethered Notch lacking the extracellular domain, read 24 h later
Read-out: 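Firefly luciferase from an E(spl)m3 reporter with active Notch, plus control-promoter and uninduced reporter wells for normalisation; unnormalised counts, duplicate wells a and b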
Scale: induced reporter light, run 1, well a and induced reporter light, run 1, well b: higher = more light from the Notch target reporter with active Notch; control promoter light, run 1, well a and control promoter light, run 1, well b: higher = more light from the viral control promoter (cell number, transfection, viability); uninduced reporter light, run 1, well a: higher = more light from the Notch target reporter without active Notch
Rule for the call: 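Wells with low control signal or poorly matching duplicates excluded; duplicates averaged; per source plate, z beyond ±2 for induced/control log2 ratio or beyond ±1.8 for induced/uninduced marks a hit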
Calls: active = modifier hit (raised or lowered Notch signal); inactive = not a hit

gene knocked down	amplicon	induced reporter light, run 1, well a	induced reporter light, run 1, well b	control promoter light, run 1, well a	control promoter light, run 1, well b	uninduced reporter light, run 1, well a	Call
CG30089	DRSC06126	51190	59045	76355	1.02e5	4065	inactive
CG30089	DRSC06127	5630	4235	6732	4755	1035	inactive
CG30089	DRSC06267	1.24e5	82280	1.55e5	1.48e5	9182	inactive
CG30089	DRSC06268	1.92e5	1.72e5	2.83e5	2.48e5	13205	inactive
CG30089	DRSC21694						inactive
CG33679	DRSC01436	1.26e5	1.07e5	1.20e5	85080	12275	inactive
Gr47a	DRSC06221	1.89e5	1.83e5	2.79e5	2.36e5	17820	inactive
CG43773	DRSC00287	96495	72145	27675	24445	13280	active
CG43773	DRSC00288	1.76e5	1.20e5	1.68e5	1.67e5	9840	inactive
CG13375	DRSC18621	1.23e5	1.27e5	1.90e5	2.02e5	9210	inactive
Rbp9	DRSC00416	2.80e5	1.79e5	2.27e5	2.70e5	13740	inactive
Rbp9	DRSC00779	1.13e5	1.25e5	96405	1.00e5	14510	inactive
CG14315	DRSC14794	1.81e5	1.81e5	1.91e5	1.85e5	12780	inactive
CG4676	DRSC06879	1.16e5	95400	1.45e5	1.53e5	9990	inactive

Continued; the last 2 above are carried over.
gene knocked down	amplicon	induced reporter light, run 1, well a	induced reporter light, run 1, well b	control promoter light, run 1, well a	control promoter light, run 1, well b	uninduced reporter light, run 1, well a	Call
CG14315	DRSC14794	1.81e5	1.81e5	1.91e5	1.85e5	12780	inactive
CG4676	DRSC06879	1.16e5	95400	1.45e5	1.53e5	9990	inactive
CG10413	DRSC02052	3.28e5	3.38e5	3.41e5	3.14e5	20535	inactive
c(2)M	DRSC01922	3.01e5	2.60e5	2.67e5	2.89e5	19335	inactive
mRpS31	DRSC10556	1.74e5	2.25e5	1.31e5	1.10e5	13705	inactive
CG2120	DRSC18207	1.08e5	1.26e5	2.86e5	1.93e5	10140	inactive
CG6424	DRSC05936	99380	1.03e5	1.77e5	2.10e5	6955	inactive
CG30496	DRSC06805	2.75e5	2.34e5	2.34e5	2.70e5	15330	inactive
CG17304 (retired record)	DRSC15222	49650	56995	33875	33545	8315	inactive
Axud1	DRSC00270	1.29e5	1.34e5	1.08e5	59025	10615	inactive
ssp3	DRSC02669	39555	35100	53450	41105	2345	inactive
ssp3	DRSC02670	82355	48650	56280	96850	5620	inactive
mAChR-B	DRSC16345	1.14e5	1.40e5	75695	69340	7068	inactive
Arc2	DRSC06436	79925	93840	1.15e5	79210	9600	inactive
CG43672	DRSC19452	62740	64080	68420	70450	8665	inactive
CG43672	DRSC20108	83195	83070	1.02e5	85995	12690	inactive
beat-IIIc	DRSC02438	1.69e5	1.74e5	1.79e5	2.05e5	14965	inactive
beat-IIIc	DRSC02949	1.14e5	1.42e5	1.34e5	1.49e5	9940	inactive
CG32026	DRSC08950	1.68e5	1.59e5	1.78e5	1.91e5	11820	inactive
CG11360	DRSC17124	66250	66195	77500	90865	4905	inactive
CG11360	DRSC17134	94600	91645	2.02e5	1.73e5	8950	inactive
ProtB	DRSC03373	1.53e5	1.62e5	1.69e5	1.80e5	15770	inactive
